Results on one molecule are retold here after article PMC10698143.

The target of the assay is T1, Macrophage migration inhibitory factor (MIF) (human (endogenous in RCTE)) (UniProt P14174).
T1 sequence: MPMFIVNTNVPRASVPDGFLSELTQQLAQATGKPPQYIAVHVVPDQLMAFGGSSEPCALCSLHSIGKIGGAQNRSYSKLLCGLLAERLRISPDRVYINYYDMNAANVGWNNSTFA
Put plainly: co-IP; endogenous proteins, RCTE cell lysates; anti-MIF or anti-PIP4K2a antibody on protein A agarose, 4 °C overnight, washed with lysis buffer with additional 300 mM NaCl, Western blot; also after PIP4K2a siRNA (less MIF with 14-3-3ζ) and GFP-PIP4K2a overexpression (more). A general note: A western blot detects proteins with antibodies after separation by electrophoresis.

Results are given in words; binding and its absence hold for the method and conditions named. In cells and extracts the contact can be indirect. Some entries that bind do so weakly or less than the wild type.

B1: phosphatidylinositol-5-phosphate 4-kinase type 2 alpha (PIP4K2a) (enzyme, UniProt P48426 1-406)
chain: MATPGNLGSSVLASKTKTKKKHFVAQKVKLFRASDPLLSVLMWGVNHSINELSHVQIPVMLMPDDFKAYSKIKVDNHLFNKENMPSHFKFKEYCPMVFRNLRERFGIDDQDFQNSLTRSAPLPNDSQARSGARFHTSYDKRYIIKTITSEDVAEMHNILKKYHQYIVECHGITLLPQFLGMYRLNVDGVEIYVIVTRNVFSHRLSVYRKYDLKGSTVAREASDKEKAKELPTLKDNDFINEGQKIYIDDNNKKVFLEKLKKDVEFLAQLKLMDYSLLVGIHDVERAEQEEVECEENDGEEEGESDGTHPVGTPPDSPGNTLNSSPPLAPGEFDPNIDVYGIKCHENSPRKEVYFMAIIDILTHYDAKKKAAHAAKTVKHGAGAEISTVNPEQYSKRFLDFIGHILT
Take B1: the binding result is on record as “binds”.
